Assay: Uptake of zinc in Vitro-skin
Details: 0.39% w/w Zn solutions; saliva-soaked Vitro-skin, 2 minutes at 37° C.; AA zinc analysis

Point of comparison: `O=C([O-])CC(O)(CC(=O)[O-])C(=O)[O-].O=C([O-])CC(O)(CC(=O)[O-])C(=O)[O-].[Zn+2].[Zn+2].[Zn+2]` [Zinc Citrate (prepared), Zinc Citrate], “Zn uptake to Vitro-skin” value 49.6 μg/cm^2. Against it:
- O=C([O-])CC(O)(CC(=O)[O-])C(=O)[O-].O=C([O-])CC(O)(CC(=O)[O-])C(=O)[O-].[Zn+2].[Zn+2].[Zn+2] [Zinc Citrate (commercial), Zinc Citrate] — lower, 38.1 μg/cm^2
- [Cl-].[Cl-].[Zn+2] [Zinc Chloride] — lower, 41.9 μg/cm^2

Source: patent US10357438B2, “Metal salt compositions” (Colgate-Palmolive Company, priority 2014, dated 2019)
